In the supplement of paper PMC7125110:
± gives the standard error. The uncertainty is large for many entries.

B1: glmS ribozyme (parent)
chain: AUAAAAGCGCCAGAACUACAGAAAUGUAGUUGACGAGGAGGAGGUUUAUCGAAUUUUCGGCGGAUGCCUCCAAA

Variants of: B1
Experiment: kcat; higher = faster cleavage; RNA array
Conditions: with glucosamine-6-phosphate
Procedure, shortened: (§1)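 Glucosamine-6-phosphate (40 μM to 10 mM) in HEPES/KCl/Mg(OAc)2 buffer was flowed over sequenced MiSeq chips, and tiles were imaged over ~14 h. Barcoded ribozyme variants there had been transcribed in situ by E. coli RNA polymerase and were tracked through a hybridised Cy3 probe at 37 °C. One- or two-exponential decay fits to per-tile medians, normalised to baseline and to non-cleaving reference variants, gave kobs. kcat and KM came from weighted Michaelis–Menten fits across concentrations.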

Variant	kcat
G60U G66C	< 1e-05 s⁻¹
C61U C67G	1.37e-05 ± 7.2e-06 s⁻¹
G62U C71A	< 1e-05 s⁻¹
G62U U69G	3.26e-05 ± 2e-05 s⁻¹
U65A C70U	0.00439 ± 0.0025 s⁻¹
U65A C71G	0.000477 ± 0.00013 s⁻¹
U65G C68U	0.00167 ± 0.00057 s⁻¹
U65G C71A	0.00388 ± 0.0027 s⁻¹
G66A C71A	0.00247 ± 0.0013 s⁻¹
C71U	0.0412 ± 0.026 s⁻¹

Variants of: B1
Experiment: self-cleavage kobs at 160 uM GlcN6P; higher = faster cleavage; RNA array
Conditions: with glucosamine-6-phosphate
Procedure, shortened: as §1

Variant	self-cleavage kobs at 160 uM GlcN6P
G62U U69G	2.6e-05 ± 1.5e-05 s⁻¹
A6G U45A	2.91e-05 ± 2.1e-05 s⁻¹
C11A C71G	2.42e-05 ± 1.6e-05 s⁻¹
C11A U30A	3.21e-05 ± 2e-05 s⁻¹
C11A U54G	2.05e-05 ± 1.7e-05 s⁻¹
A12U A53C	0.000976 ± 0.0005 s⁻¹

Variants of: B1
Experiment: KM; higher = weaker cofactor use; RNA array
Conditions: with glucosamine-6-phosphate
Procedure, shortened: as §1

Variant	KM
U65A C70U	2130 ± 1500 µM
U65A C71G	1710 ± 720 µM
U65G C68U	2180 ± 1200 µM
U65G C71A	6040 ± 5300 µM
G66A C71A	666 ± 500 µM
C71U	1730 ± 1400 µM
A6C U54G	4980 ± 410 µM
A6G A15U	936 ± 570 µM
A6G A39G	6330 ± 3500 µM
A6G A39U	1490 ± 84 µM
A6G C10A	181 ± 140 µM
A6G G13A	360 ± 310 µM
A6G U30A	1920 ± 1200 µM
A6G U30G	5370 ± 1400 µM
A6G U31G	4990 ± 1600 µM
A6G U45A	2050 ± 1300 µM
A6U A23C U30G	2780 ± 300 µM
A6U U30C	29.4 ± 16 µM
A6U U56G	1090 ± 430 µM
G7A A39G	105000 ± 25000 µM
G7A A53U	8600 ± 6700 µM
G7C G13U	465 ± 370 µM
G7U C50G C68G	26.5 ± 18 µM
G7U G66U C70G	9.89 ± 7.5 µM
C8A G37U C70A	43.9 ± 40 µM
G9U C61G	2350 ± 460 µM

Quoted from the listing.
Entry for A6G U31G under KM: 4990 ± 1600 µM
Entry for A6G A39U under KM: 1490 ± 84 µM
Entry for U65G C71A under KM: 6040 ± 5300 µM
Entry for A6U A23C U30G under KM: 2780 ± 300 µM

Remaining list, next part:

Variant	KM
C10A A12U C71U	21.5 ± 9.2 µM
C10A A39G	13.2 ± 9.7 µM
C10G A12C	7310 ± 5500 µM
C10G C11A	1950 ± 1900 µM
C10G C61A	180 ± 67 µM
C10G G62C	759 ± 600 µM
C10U A53G	6420 ± 600 µM
C10U G32C	1070 ± 750 µM
C10U U47A	300 ± 150 µM
C11A A15G C16A G29U	2210 ± 1100 µM
C11A A39U	2430 ± 1200 µM
C11A C71A	3970 ± 3500 µM
C11A C71G	249 ± 160 µM
C11A G29U	597 ± 430 µM
C11A U30A	1940 ± 600 µM
C11A U30G G60A	18.4 ± 16 µM
C11A U54G	2170 ± 1300 µM
C11A U56G	1410 ± 990 µM
C11G	665 ± 260 µM
C11G U30A	14800 ± 1200 µM
C11G U55A	37.7 ± 30 µM
C11U	1800 ± 450 µM
C11U A12U G32A	2370 ± 1900 µM
C11U C58G	188 ± 18 µM
C11U G37U	67.6 ± 58 µM
C11U G59A	1470 ± 810 µM

Variant	KM
C11U U30G	1720 ± 910 µM
C11U U31C	1620 ± 460 µM
C11U U45G	4010 ± 2200 µM
C11U U45G U54A	2720 ± 1800 µM
C11U U56A C70U	479 ± 270 µM
A12C A48G	1260 ± 810 µM
A12C A53G	5160 ± 3000 µM
A12C A64C	4850 ± 770 µM
A12C C58A	15200 ± 580 µM
A12C C71G	689 ± 460 µM
A12C G29U U47G	4280 ± 2100 µM
A12C U46G	1950 ± 600 µM
A12G C58G	1950 ± 1100 µM
A12G U56A	7960 ± 2300 µM
A12G U56C	9850 ± 1600 µM
A12U A48G	628 ± 400 µM
A12U A48U	3400 ± 1900 µM
A12U A53C	1170 ± 680 µM
A12U C16A U56A	850 ± 560 µM
A12U C70A	282 ± 140 µM
A12U C71U	1790 ± 350 µM
A12U G59U	1690 ± 860 µM
A12U U31G	1530 ± 910 µM
A12U U54G	1130 ± 680 µM

Variants of: B1
Experiment: self-cleavage kobs at 40 uM GlcN6P; higher = faster cleavage; RNA array
Conditions: with glucosamine-6-phosphate
Procedure, shortened: as §1

Variant	self-cleavage kobs at 40 uM GlcN6P
U65A C71G	5.24e-05 ± 2.7e-05 s⁻¹
A6G A39G	3.03e-05 ± 1.6e-05 s⁻¹
C11A C71G	2.41e-05 ± 2e-05 s⁻¹
A12C G29U U47G	1.69e-05 ± 1.6e-05 s⁻¹

Variants of: B1
Experiment: self-cleavage kobs at 2500 uM GlcN6P; higher = faster cleavage; RNA array
Conditions: with glucosamine-6-phosphate
Procedure, shortened: as §1

Variant	self-cleavage kobs at 2500 uM GlcN6P
G66A C71A	0.000434 ± 0.00042 s⁻¹
A6U A23C U30G	2.59e-05 ± 1.6e-05 s⁻¹
C11G	< 1e-05 s⁻¹

Variants of: B1
Experiment: self-cleavage kobs at 640 uM GlcN6P; higher = faster cleavage; RNA array
Conditions: with glucosamine-6-phosphate
Procedure, shortened: as §1

Variant	self-cleavage kobs at 640 uM GlcN6P
G7U C50G C68G	0.000434 ± 0.00023 s⁻¹
C11A C71A	2.74e-05 ± 1.4e-05 s⁻¹
C11A C71G	3.09e-05 ± 1.8e-05 s⁻¹
C11A U54G	0.00999 ± 0.007 s⁻¹
C11U A12U G32A	2.16e-05 ± 2e-05 s⁻¹
C11U C58G	2.58e-05 ± 1.5e-05 s⁻¹
A12C A64C	2.26e-05 ± 1.2e-05 s⁻¹
A12C C58A	3e-05 ± 2.2e-05 s⁻¹
A12G C58G	1.42e-05 ± 1.2e-05 s⁻¹

Variants of: B1
Experiment: self-cleavage kobs at 10000 uM GlcN6P; higher = faster cleavage; RNA array
Conditions: with glucosamine-6-phosphate
Procedure, shortened: as §1

Variant	self-cleavage kobs at 10000 uM GlcN6P
C10U U47A	1.91e-05 ± 1.9e-05 s⁻¹
